For this test, the target named is KIF21B (endogenous, rat brain) (rat (endogenous in brain)) (UniProt F1M5N7). As to the kind of experiment: co-IP; anti-KIF21B antibody on Protein G Dynabeads incubated 30 min at 4 °C with rat brain P4 lysate (400,000 x g, IM-Ac buffer, 1% Triton-X-100, precleared); washed with modified RIPA buffer; Western blot; control IgG. For orientation: In western blotting, separated proteins are transferred to a membrane and probed.

Amino acid sequences for entries named in this document (tags omitted).
UniProt F1M5N7: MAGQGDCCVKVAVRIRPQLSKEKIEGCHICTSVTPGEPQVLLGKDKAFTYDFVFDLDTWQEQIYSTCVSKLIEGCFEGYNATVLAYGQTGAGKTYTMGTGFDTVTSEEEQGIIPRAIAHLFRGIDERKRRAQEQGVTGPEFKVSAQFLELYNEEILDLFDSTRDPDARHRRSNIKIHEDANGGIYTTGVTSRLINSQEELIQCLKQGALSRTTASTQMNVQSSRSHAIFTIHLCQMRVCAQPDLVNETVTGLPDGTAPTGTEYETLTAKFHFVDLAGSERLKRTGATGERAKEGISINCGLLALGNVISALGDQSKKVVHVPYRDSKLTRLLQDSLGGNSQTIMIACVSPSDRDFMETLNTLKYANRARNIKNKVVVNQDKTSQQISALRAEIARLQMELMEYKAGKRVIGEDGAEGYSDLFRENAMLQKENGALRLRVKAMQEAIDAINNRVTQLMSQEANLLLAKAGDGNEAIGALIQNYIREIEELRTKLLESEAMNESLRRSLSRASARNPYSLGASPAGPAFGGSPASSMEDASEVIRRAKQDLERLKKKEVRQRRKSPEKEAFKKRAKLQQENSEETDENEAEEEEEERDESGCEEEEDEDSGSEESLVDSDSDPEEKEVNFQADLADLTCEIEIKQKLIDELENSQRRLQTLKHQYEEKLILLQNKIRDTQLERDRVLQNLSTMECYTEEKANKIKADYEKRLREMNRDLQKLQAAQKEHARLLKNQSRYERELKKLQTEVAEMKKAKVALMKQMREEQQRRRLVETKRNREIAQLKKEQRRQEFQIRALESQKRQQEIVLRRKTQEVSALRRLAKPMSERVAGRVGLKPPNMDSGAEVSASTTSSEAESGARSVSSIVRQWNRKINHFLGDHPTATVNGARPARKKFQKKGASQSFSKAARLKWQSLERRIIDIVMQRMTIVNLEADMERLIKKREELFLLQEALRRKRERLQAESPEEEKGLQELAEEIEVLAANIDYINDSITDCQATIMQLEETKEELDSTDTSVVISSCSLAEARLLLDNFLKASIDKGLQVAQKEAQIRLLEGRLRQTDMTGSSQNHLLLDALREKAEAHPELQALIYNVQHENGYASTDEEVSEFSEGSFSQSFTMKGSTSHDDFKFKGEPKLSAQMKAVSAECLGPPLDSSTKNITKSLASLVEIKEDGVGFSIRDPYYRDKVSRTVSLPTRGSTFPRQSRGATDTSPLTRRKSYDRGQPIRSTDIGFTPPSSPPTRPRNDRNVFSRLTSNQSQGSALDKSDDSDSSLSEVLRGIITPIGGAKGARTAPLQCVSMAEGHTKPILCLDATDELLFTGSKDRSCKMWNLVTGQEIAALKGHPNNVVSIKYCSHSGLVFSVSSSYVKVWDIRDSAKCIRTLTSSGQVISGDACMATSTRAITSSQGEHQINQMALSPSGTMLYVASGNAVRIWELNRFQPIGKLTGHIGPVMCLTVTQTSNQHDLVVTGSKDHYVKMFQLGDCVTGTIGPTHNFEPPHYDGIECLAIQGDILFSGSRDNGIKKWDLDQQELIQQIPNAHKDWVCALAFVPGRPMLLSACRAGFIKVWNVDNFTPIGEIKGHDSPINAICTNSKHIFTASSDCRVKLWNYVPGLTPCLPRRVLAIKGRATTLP

No constants are given. Whether binding was seen depends on the method and setting. Binding seen in cells or lysates may run through a third protein. Some binding calls cover weakened binding; strength is not graded here.

B1: TRIM3 (endogenous, rat brain) (protein, UniProt O70277 1-744)
chain: MAKREDSPGPEVQPMDKQFLVCSICLDRYRCPKVLPCLHTFCERCLQNYIPPQSLTLSCPVCRQTSILPEQGVSALQNNFFISSLMEAMQQAPDGAHDPEDPHPLSAVAGRPLSCPNHEGKTMEFYCEACETAMCGECRAGEHREHGTVLLRDVVEQHKAALQRQLEAVRGRLPQLSAAIALVGGISQQLQERKAEALAQISAAFEDLEQALQQRKQALVSDLESICGAKQKVLQTQLDTLRQGQEHIGSSCSFAEQALRLGSAPEVLLVRKHMRERLAALAAQAFPERPHENAQLELVLEVDGLRRSVLNLGALLTTSAAAHETVATGEGLRQALVGQPASLTVTTKDKDGRLVRTGSAELCAEITGPDGMRLAVPVVDHKNGTYELVYTARTEGDLLLSVLLYGQPVRGSPFRVRALRPGDLPPSPDDVKRRVKSPGGPGSHVRQKAVRRPSSMYSTGGKRKDNPIVDELVFRVGSRGREKGEFTNLHPLSAASSGRIVVADSNNQCIQVFSNEGQFKFRFGVRGRSPGQLQRPTGVAVDTNGDIIVADYDNRWVSIFSPEGKFKTKIGAGRLMGPKGVAVDRNGHIIVVDNKSCCVFTFQPNGKLVGRFGGRGATDRHFAGPHFVAVNNKNEIVVTDFHNHSVKVYSADGEFLFKFGSHGEGNGQFNAPTGVAVDSNGNIIVADWGNSRIQVFDSSGSFLSYINTSAEPLYGPQGLALTSDGHVVVADAGNHCFKAYRYLQ
In the case of B1, the binding entry was “binds”.

For the origin of these results see paper PMC3782429.
